# Laboratory results taken from US10253080B2 (Zealand Pharma A/S, priority 2012, dated 2019).
# Assays:
# [1] = general procedure: Fmoc solid-phase peptide synthesis; TentaGel S Ram S; conditions: whole synthesis, analytical HPLC and MS, scale of the general procedure 1 g resin, 0.25 mmol/g; run 1
# [2] = general procedure: Fmoc solid-phase peptide synthesis; TentaGel S Ram (0.25 mmol/g); TentaGel S resins 0.22-0.31 mmol/g (S-Ram, S RAM-Lys(Boc)Fmoc, S PHB); conditions: whole synthesis, analytical HPLC and MS, scale of the general procedure 1 g resin, run 1
substance,measurement,setting,value
H-HGDGSFSDEMNTILDGQAARDFINWLIQTK-NH2 [MW 3377.61],final HPLC purity,[1],45%
same,final HPLC purity,[2],89%
